The text below walks through data of PubChem BioAssay AID493014 (National Center for Advancing Translational Sciences (NCATS), 2011).

Structures are written as SMILES. This is one part of the list. These are further read-outs of the screen, such as a control signal, another cell line or another target. No call is given for them. The list favours compounds with an active or inconclusive main result. Words in brackets tell the shape of the fitted curve; partial curves, single points and poor fits give uncertain potencies.

A short description of this experiment: qHTS Assay to Find Inhibitors of Chronic Active B-Cell Receptor Signaling. Conditions: ABC-DLBCL IkBa-CBG/CBR reporter, luminescence ratio (green luciferase fused to IkBa over red control in TMD8 lymphoma cells), 4 h. In a few lines:
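TMD8 human ABC-DLBCL cells with doxycycline-inducible IκBα–green luciferase fusion and unfused red luciferase, in 0.5% FBS medium; compounds up to 46 uM, 4 h at 37C. Green/red luminescence ratio, filter-overlap corrected, fitted to concentration-response curves.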

[1] abbreviates: measured here: CBR red luminescence, cell number.

For the compound `CSc1nc2ccc3nc(NC(=O)C4COc5ccccc5O4)sc3c2s1` (stereo unspecified), the AC50 under setting [1] is 13 µM [falling, single point]. For `COc1ccccc1CN1CCN(S(=O)(=O)c2ccccc2)CC1`, the AC50 under setting [1] is 2.59 µM [falling, full curve, poor fit].

Regarding `CCOC(=O)CSc1nc(N)c2c3c(sc2n1)CCCC3`, the AC50 under setting [1] is 18.4 µM [falling, single point]. On the same count and under the same terms, the value for `COc1ccc(N2CCN(C(=O)COC(=O)c3ccc(Cl)nc3)CC2)cc1` was 3.66 µM [rising, full curve]; that for `COc1cc(/C=N/Nc2nc3ccccc3o2)cc(OC)c1O` was 29.1 µM [falling, single point]; that for `COc1ccccc1CNC(=O)c1cc2c(=O)[nH]c3ccccc3c2n1C` was 7.08 µM [falling, full curve]. Same read-out and setting: the value for `OC(CNCc1ccccc1)(c1ccc(F)cc1)c1ccc(F)cc1` was 20.6 µM [falling, single point]. For `CC(C)CNC(=O)CCCc1c[nH]c2ccccc12`, the AC50 under setting [1] is 22.4 µM [falling, single point]. The same measure, in the same setting: the result for `CC(C)c1ccccc1NC(=S)NC1CCCCC1` reads 12.6 µM [rising, partial curve]; that for `COc1ccc(NC(=O)CN2C(=O)CSc3ccc(S(=O)(=O)N(C)C)cc32)cc1OC`, 3.55 µM [rising, full curve, poor fit].

On to `Cc1ccc(NC(=O)C2CCN(S(=O)(=O)c3ccc4ccccc4c3)CC2)nc1`, for which, under setting [1], the AC50 was 29.1 µM [falling, single point]. Still for that read-out and setting: the result for `CC1CCN(C(=O)c2cc3c(ccc4ccccc43)o2)CC1` reads 14.1 µM [falling, single point]. The same measure, in the same setting: the result for `C=C1CCC[C@]2(C)C[C@H]3OC(=O)C(CNC(C)CC)[C@H]3CC12` (stereo partly specified) reads 17.8 µM [falling, partial curve, poor fit]. Still for that read-out and setting: the value for `Cc1cc(C)c2c(-n3cccc3)c(NC(=O)OC(C)C)sc2n1` was 11.2 µM [rising, partial curve]. For the compound `COc1ccccc1-n1cc(-c2ccc([N+](=O)[O-])cc2)[nH]c1=S`, the AC50 under setting [1] is 0.501 µM [rising, full curve, poor fit]. Still for that read-out and setting: the result for `Cn1nc(C(=O)Nc2cccc(S(=O)(=O)N3CCCC3)c2)c2ccccc2c1=O` reads 13 µM [rising, partial curve, poor fit]; that for `Cc1noc(C)c1C(=O)N1CCC(CO)(Cc2ccccc2)CC1`, 6.31 µM [rising, single point]. As to `CCc1cccc(NC(=O)C2CCCN2S(=O)(=O)c2cccc3cccnc23)c1` (stereo unspecified), the AC50 is 0.631 µM [rising, full curve, poor fit] under setting [1] and 0.708 µM [falling, partial curve, poor fit] (measured here: IkBa-CBG green luminescence).

`Cc1nc(Nc2ccccc2C(F)(F)F)sc1C(=O)N(C)C`: the AC50 under setting [1] was 2 µM [rising, partial curve]. The same measure, in the same setting: the result for `CC(=O)N(C)Cc1ccc(C(=O)CCl)cc1` reads 22.4 µM [falling, single point]. Same read-out and setting: the result for `CN(C)C(=O)c1cc(C(=O)c2ccc(F)cc2F)c[nH]1` reads 11.2 µM [falling, single point].

Turning to `FC(F)(F)c1ccc(Cl)c(NC(=S)N/N=C/c2ccccc2C(F)(F)F)c1`, the AC50 under setting [1] was 8.2 µM [rising, partial curve, poor fit]. For `CC(C)(C)c1[nH]nc2c1C(Cc1ccccc1)C(C#N)=C(N)O2` (stereo unspecified), the AC50 under setting [1] is 29.1 µM [falling, single point]. Same read-out and setting: the result for `CCN(CC)S(=O)(=O)c1cc(NS(=O)(=O)c2c(Cl)cccc2Cl)ccc1C` reads 2.91 µM [falling, full curve, poor fit]; that for `O=C(c1ccco1)N1CCN=C1SCc1ccccc1Cl`, 3.66 µM [falling, partial curve, poor fit]. Still for that read-out and setting: the value for `Cn1c(CN2CCOCC2)nc2cc(NC(=O)c3ccc(Cl)cc3)ccc21` was 20 µM [falling, partial curve, poor fit]; that for `O=C(Nc1ncccc1Cl)c1ccc2c(c1)OCCO2` was 35.5 µM [falling, single point]; that for `COC(=O)c1c(NC(NC(=O)CC(C)C)C(Cl)(Cl)Cl)sc2c1CCC2` (stereo unspecified) was 16.4 µM [falling, single point].

As to `CCCCCCN(C(=O)CCCCCN1C(=O)NC(c2ccc(-c3ccccc3)cc2)C(C(=O)OCc2ccccc2)=C1C)C(C(=O)NCCCC)c1ccc(OCC(=O)OC)cc1` (stereo unspecified), under setting [1], the AC50 is 20.6 µM [rising, single point]. The same measure, in the same setting: the value for `C=CC[C@H](CC(=O)N(CCO)Cc1ccccc1)C(=O)N[C@@H](COC(=O)[C@@H](CC=C)Cc1ccc(F)cc1)Cc1c[nH]c2ccccc12` was 16.4 µM [falling, partial curve]; that for `Cc1cc2nc(SCC(=O)Nc3ccccc3C(=O)O)[nH]c2cc1C` was 22.4 µM [falling, partial curve, poor fit]; that for `CN(C)c1oc(/C=C/c2ccccc2)nc1C#N` was 1.84 µM [rising, partial curve, poor fit]. As for `Cc1cn2c(=O)c(C(=O)N3CCN(c4ccccc4)CC3)cnc2s1`, the AC50 under setting [1] is 18.4 µM [rising, partial curve, poor fit]. Still for that read-out and setting: the result for `O=C(Nc1cccc(C(=O)O)c1)Nc1cccc2ccccc12` reads 14.1 µM [falling, single point]; that for `Cc1cc(C)c(C#N)c(SCC2COc3ccccc3O2)n1` (stereo unspecified), 2.24 µM [rising, full curve, poor fit]. For the compound `Cc1ccc(S(=O)(=O)N2CCCC(c3nc(-c4ccc(C)o4)no3)C2)cc1` (stereo unspecified), the AC50 under setting [1] was 7.31 µM [rising, partial curve, poor fit].

Take `COc1ccc(/C(N)=N/OC(=O)CCC2CCCC2)cc1`: the AC50 under setting [1] was 1.26 µM [rising, full curve, poor fit]. In the case of `COc1ccc(N2C(=O)CC(Nc3cccc(C(C)=O)c3)C2=O)cc1OC` (stereo unspecified), the AC50 under setting [1] was 29.1 µM [rising, single point]. Same read-out and setting: the result for `O=C(O)c1ccc(/C=N/Nc2ncc(Cl)cc2Cl)cc1` reads 12.6 µM [falling, partial curve, poor fit]. Turning to `O=C(COC(=O)c1ccccc1Br)Nc1cc(S(=O)(=O)N2CCOCC2)ccc1N1CCCC1`, under setting [1], the AC50 was 25.1 µM [falling, single point].
